According to patent US10071108B2, “Methods and pharmaceutical compositions for the treatment of hepatitis b virus infection” (INSERM (INSTITUT NATIONAL DE LA SANTÉ ET DE LA RECHERCHE …, priority 2013, dated 2018):
Entries after “also recorded” stand apart in the source; their conditions may differ. At least one compound was matched to its structure with a doubt left. Some entries share one result that the patent states for a list of compounds.

What was measured:
[1] = test system: APOA1; assay: APOA1 mRNA expression in HBV infected HepaRG cells (qPCR); format: cell-based, human; settings: 10 days treatment
Description: (§1) Differentiated HepaRG cells were infected and treated as described in FIG. 1 legend. Cells were lysed and RNA was extracted, then reverse transcribed into cDNA for qPCR. The expression levels of 3 genes of interest were quantified: FXRα, SHP and APOA1, as well as 3 housekeeping genes for normalization (n=3±SEM). FXR agonists, GW4064 and 6ECDCA, inhibit the expression of FXR mRNA in a dose-dependent manner. SHP and APOA1 are two genes under the regulation of FXR; SHP is induced by FXR while APOA1 is repressed. Here, SHP mRNA expression increases with GW4064 and 6ECDCA treatments, while APOA1 mRNA expression decreases.
(§2) The HepaRG system thus allows the monitoring of the secretion of HBsAg and HBeAg and virion incorporated DNA into the cell culture supernatant after infection with HBV infectious virion stocks prepared from the HepG2.2.15 cell line. This system also allows the monitoring of the synthesis of pregenomic and viral mRNAs as well as cytoplasmic replication intermediates and cccDNA. The effects of molecules on cell physiology and cell differentiated functions were explored, including the quantification of hepatic markers such as albumin and apolipoprotein B. The effects of the compounds on the cellular bile acid pathway were monitored by analysis and quantification of the FXR mRNA as well as the SHP and apoA1 encoding mRNAs the expression of which is under the control of FXR

[2] = test system: SHP; assay: SHP mRNA expression in HBV infected HepaRG cells (qPCR); format: cell-based, human; settings: 10 days treatment
Description: as §1, §2

[3] = test system: FXRα; assay: FXR mRNA expression in HBV infected HepaRG cells (qPCR); format: cell-based, human; settings: 10 days treatment
Description: as §1, §2

[4] = test system: HBV cccDNA; assay: cccDNA quantification by qPCR in HBV infected HepaRG cells; format: cell-based, hepatitis B virus; settings: at 10 μM; qPCR normalized to βglobin gene
[5] = test system: HBV; assay: HBV pregenomic/precore mRNA in infected HepaRG cells (qRT-PCR, Northern blot); format: cell-based, hepatitis B virus; settings: for reduction of 3.4 and 3.5 pre-core and pre-genomic RNAs: quantitative RT-PCR, maximum, dose-dependent
Description: Differentiated HepaRG cells were infected and treated as described in FIG. 1 legend. Cells were lysed and RNA was extracted, then either reverse transcribed into cDNA for quantitative PCR (qRT-PCR) (FIG. 4A) or used in Northern Blot experiment (FIG. 4B). The same experiment was repeated and DNA was extracted. Following plasmid-safe DNase treatment, cccDNA expression was quantified by qPCR experiment using specific HBV cccDNA primers and TaqMan probe (n=3±SEM) (FIG. 4C). cccDNA quantification was normalized to the number of βglobin gene. The expression levels of HBV pregenomic gene were quantified, as well as 3 housekeeping genes for normalization (n=3±SEM). Both FXR agonists, GW4064 and 6ECDCA, inhibit the expression of HBV pregenomic/precore mRNA in a dose-dependent manner. The reduction is confirmed in the northern blot (3.4-3.5 Kb band).
as §2

[6] = test system: HBV; settings: Lada O, et al., Antivir Ther., 2004; cited from earlier work

| Compound | APOA1 mRNA expression [1] | SHP mRNA expression [2] | FXR mRNA expression [3] | reduction of cccDNA levels [4] | expression of HBV pregenomic/precore mRNA ([5]; qRT-PCR, HBV infected HepaRG) | reduction of 3.4 and 3.5 pre-core and pre-genomic RNAs [5] | IC50 [6] |
| --- | --- | --- | --- | --- | --- | --- | --- |
| CC[C@H]1[C@@H](O)[C@@H]2[C@H](CC[C@]3(C)[C@@H]([C@H](C)CCC(=O)O)CC[C@@H]23)[C@@]2(C)CC[C@@H](O)C[C@@H]12 [6ECDCA, 3α,7α-dihydroxy 7α-dihydroxy-6α-ethyl-5β-cholan-24-oic acid] | decreased | increased | inhibit; also recorded: strongly repressed | more than 50% | inhibit | up to 75% | – |
| CC(C)c1onc(-c2c(Cl)cccc2Cl)c1COc1ccc(/C=C/c2cccc(C(=O)O)c2)c(Cl)c1 [GW4064] | – | – | – | more than 50% | – | up to 75% | – |
| Nc1ccn([C@@H]2CS[C@H](CO)O2)c(=O)n1 [lamivudine] | – | – | – | – | – | – | 6 nM |
